These are yes or no findings as the source states them, for the method shown.
Legend:
[1] = biological target: mouse N1ICD (aa 1744–2113) (mouse) (UniProt Q01705); test: native gel or EMSA; 2xCSL probe; band intensities fitted to a 2-site binding model with cooperativity factor C; RBPj 2.5 to 640 nM, N1ICD and MAML at 2 uM; association of two NTCs on DNA; both purified
[2] = biological target: mouse N1^RAICD (aa 1744–2113) (mouse) (UniProt Q01705); test: as above
[3] = biological target: mouse N1^RAICD (aa 1744–2113) (mouse) (UniProt Q01705); test: native gel or EMSA; 1xSPS probe; band intensities fitted to a 2-site binding model with cooperativity factor C (Kd,2nd = Kd,1st/C); RBPj 2.5 to 640 nM, N1ICD and MAML at 2 uM; association of two NTCs on DNA; both purified

Binder | binding [1] | binding [2] | binding [3]
mouse N1ICD (aa 1744–2113) (domain or fragment, UniProt Q01705 1744-2113, looked up, Notch1 intracellular domain (RAM-ANK), mouse, residues 1744-2113; also called N1 RAM-ANK domain; WT N1ICD) VLLSRKRRRQHGQLWFPEGFKVSEASKKKRREPLGEDSVGLKPLKNASDGALMDDNQNEWGDEDLETKKFRFEEPVVLPDLSDQTDHRQWTQQHLDAADLRMSAMAPTPPQGEVDADCMDVNVRGPDGFTPLMIASCSGGGLETGNSEEEEDAPAVISDFIYQGASLHNQTDRTGETALHLAARYSRSDAAKRLLEASADANIQDNMGRTPLHAAVSADAQGVFQILLRNRATDLDARMHDGTTPLILAARLAVEGMLEDLINSHADVNAVDDLGKSALHWAAAVNNVDAAVVLLKNGANKDMQNNKEETPLFLAAREGSYETAKVLLDHFANRDITDHMDRLPRDIAQERMHHDIVRLLDEYNLVRSPQ | no binding (condition: on the 2xCSL probe) | – | –
mouse N1^RAICD (aa 1744–2113) (domain or fragment, UniProt Q01705 1744-2113, looked up, Notch1 intracellular domain (RAM-ANK), mouse, residues 1744-2113, with Arg1974 in the ANK domain changed to alanine; also called RA mutant; N1^R1974A) VLLSRKRRRQHGQLWFPEGFKVSEASKKKRREPLGEDSVGLKPLKNASDGALMDDNQNEWGDEDLETKKFRFEEPVVLPDLSDQTDHRQWTQQHLDAADLRMSAMAPTPPQGEVDADCMDVNVRGPDGFTPLMIASCSGGGLETGNSEEEEDAPAVISDFIYQGASLHNQTDRTGETALHLAARYSRSDAAKRLLEASADANIQDNMGRTPLHAAVSADAQGVFQILLRNAATDLDARMHDGTTPLILAARLAVEGMLEDLINSHADVNAVDDLGKSALHWAAAVNNVDAAVVLLKNGANKDMQNNKEETPLFLAAREGSYETAKVLLDHFANRDITDHMDRLPRDIAQERMHHDIVRLLDEYNLVRSPQ | – | no binding (condition: on the 2xCSL probe) | no binding (tested: N1^RAICD at 2 uM, RBPj up to 640 nM)
